From the supplement of paper PMC7125110
± gives the standard error. Many of these values have a large error.

B1: glmS ribozyme (parent)
chain: AUAAAAGCGCCAGAACUACAGAAAUGUAGUUGACGAGGAGGAGGUUUAUCGAAUUUUCGGCGGAUGCCUCCAAA

Variants of: B1
Assay: KM; higher = weaker cofactor use; RNA array
Conditions: with glucosamine-6-phosphate
Procedure, shortened: (§1)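 Tiles bearing barcoded ribozyme variants, transcribed in situ by E. coli RNA polymerase on sequenced MiSeq chips, were imaged over ~14 h at 37 °C using a hybridised Cy3 probe. Glucosamine-6-phosphate was supplied at 40 μM to 10 mM in HEPES/KCl/Mg(OAc)2 buffer. kobs came from one- or two-exponential decay fits to normalised per-tile medians, and weighted Michaelis–Menten fits then provided kcat and KM.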

| Variant | KM |
| --- | --- |
| U47A A52U | 2690 ± 570 µM |
| C70U | 517 ± 260 µM |
| G59A C71U | 1210 ± 130 µM |
| A64G C67U | 1860 ± 470 µM |
| G66U C70U | 1830 ± 590 µM |
| U55C U56G | 4170 ± 2400 µM |
| A53C G66A | 1670 ± 640 µM |
| U47G C70A | 33.9 ± 29 µM |
| U47G C70G | 43.2 ± 27 µM |
| C58U A64G | 2680 ± 1300 µM |
| G66C C70A | 531 ± 510 µM |
| A52G G66U | 4030 ± 1300 µM |
| G66U C68U | 1260 ± 190 µM |
| A52U A53U | 4210 ± 360 µM |
| A48G U56G | 696 ± 110 µM |
| C58G A64G | 1800 ± 1100 µM |
| U54G U69A | 42.4 ± 26 µM |
| A64U C67U | 638 ± 430 µM |
| A52C | 835 ± 150 µM |
| A53U C58G | 1390 ± 370 µM |
| A53G U54A | 912 ± 610 µM |
| U46G C68A | 281 ± 210 µM |
| U49G U65A | 3310 ± 1900 µM |

| Variant | KM |
| --- | --- |
| A52C U55G | 22400 ± 2800 µM |
| U54C U65C | 836 ± 700 µM |
| U54C U65G | 5410 ± 1800 µM |
| A53G C61U | 11500 ± 850 µM |
| A64G U69A | 1230 ± 510 µM |
| U49G G66U | 5640 ± 59 µM |
| U65A C70G | 66.3 ± 25 µM |
| A53U A64G | 1970 ± 260 µM |
| A52U U55G | 2150 ± 980 µM |
| U56A C70A | 74.4 ± 60 µM |
| U57C C71G | 144 ± 140 µM |
| U57C C71U | 370 ± 290 µM |
| U55A G66A | 2410 ± 1300 µM |
| U55A G66U | 2070 ± 1400 µM |
| U56A C71A | 2960 ± 1600 µM |
| U69C C71G | 28.1 ± 21 µM |
| U55A C68G | 51.2 ± 14 µM |
| C50A G51A | 75.6 ± 67 µM |
| A52C U65G | 197 ± 67 µM |
| U55C C68U | 397 ± 270 µM |
| U47A A53U | 373 ± 260 µM |
| A48U U56C | 2570 ± 1600 µM |
| U49A C67U | 256 ± 130 µM |

Variants of: B1
Assay: self-cleavage kobs at 640 uM GlcN6P; higher = faster cleavage; RNA array
Conditions: with glucosamine-6-phosphate
Procedure, shortened: as §1

| Variant | self-cleavage kobs at 640 uM GlcN6P |
| --- | --- |
| G59A C71U | 2.36e-05 ± 1.4e-05 s⁻¹ |
| A15G G51A U69G | 4.77e-05 ± 3.2e-05 s⁻¹ |
| A48G U56G | 3.5e-05 ± 2.1e-05 s⁻¹ |
| A64U C67U | 2.03e-05 ± 1.3e-05 s⁻¹ |

Variants of: B1
Assay: self-cleavage kobs at 40 uM GlcN6P; higher = faster cleavage; RNA array
Conditions: with glucosamine-6-phosphate
Procedure, shortened: as §1

| Variant | self-cleavage kobs at 40 uM GlcN6P |
| --- | --- |
| G29A U45G | 2.63e-05 ± 2.6e-05 s⁻¹ |
| C11A G13U A53G C67U C68G | 3.46e-05 ± 2.7e-05 s⁻¹ |
| C10A A52U G62U C70G | 3.33e-05 ± 2.1e-05 s⁻¹ |
| A15G G51A U69G | 3.07e-05 ± 2.3e-05 s⁻¹ |
| C8U C16G C34G C67G | 3.44e-05 ± 1.8e-05 s⁻¹ |
| C11U A12G A14G G26U | 2.79e-05 ± 2.5e-05 s⁻¹ |
| C11A A36U U56A C68G C70A | 3.05e-05 ± 2.9e-05 s⁻¹ |
| C11U C70G | 2.11e-05 ± 1.4e-05 s⁻¹ |
| C11A G37C U57A C67G | 3.02e-05 ± 2.9e-05 s⁻¹ |
| C16U G62U U69A | 3.03e-05 ± 2.5e-05 s⁻¹ |
| C10A C58G G60A U69G | 3.02e-05 ± 1.5e-05 s⁻¹ |
| A12G A39G | 1.88e-05 ± 1.5e-05 s⁻¹ |
| G7A A53U C68G | 3.84e-05 ± 2.3e-05 s⁻¹ |
| A12G A14G A39G C50A U54G C61A C68G C70U | 4.43e-05 ± 3.3e-05 s⁻¹ |
| G7A C50G G63C | 4.52e-05 ± 3e-05 s⁻¹ |
| C8U C34U U55G C70G C71U | 3.21e-05 ± 3.1e-05 s⁻¹ |
| A12U A14G G41A A42G | 4.94e-05 ± 3.1e-05 s⁻¹ |
| A12U A42U | 1.58e-05 ± 1.2e-05 s⁻¹ |
| G21U G41C C70U | 3.85e-05 ± 2.4e-05 s⁻¹ |
| A15G A53U U69G | 2.9e-05 ± 2.8e-05 s⁻¹ |
| U65A C70G | 2.29e-05 ± 1.2e-05 s⁻¹ |
| C8G G51U U69G | 7.88e-05 ± 5e-05 s⁻¹ |
| C16U A53U U65G | 2.79e-05 ± 2.6e-05 s⁻¹ |
| A14C U69A | 1.97e-05 ± 1.9e-05 s⁻¹ |
| C11U A42G U54A | 4.09e-05 ± 2.7e-05 s⁻¹ |
| A12G U55G | 2.93e-05 ± 1.6e-05 s⁻¹ |
| A12G U55C | 2.33e-05 ± 2.2e-05 s⁻¹ |
| A14C G40U A53G | 1.66e-05 ± 1.4e-05 s⁻¹ |
| G29U C67A U69A | 3.01e-05 ± 1.8e-05 s⁻¹ |
| C16G G38U C50G U54C | 3.83e-05 ± 2.6e-05 s⁻¹ |

No new results follow: entries from further up.

| Variant | self-cleavage kobs at 40 uM GlcN6P |
| --- | --- |
| C11U A12G A14G G26U | 2.79e-05 ± 2.5e-05 s⁻¹ |
| C11A A36U U56A C68G C70A | 3.05e-05 ± 2.9e-05 s⁻¹ |
| C11U C70G | 2.11e-05 ± 1.4e-05 s⁻¹ |

Variants of: B1
Assay: self-cleavage kobs at 10000 uM GlcN6P; higher = faster cleavage; RNA array
Conditions: with glucosamine-6-phosphate
Procedure, shortened: as §1

| Variant | self-cleavage kobs at 10000 uM GlcN6P |
| --- | --- |
| U47G C70G | 0.00297 ± 0.0021 s⁻¹ |
| A15G G51A U69G | 2.21e-05 ± 1.7e-05 s⁻¹ |
| C8U C16G C34G C67G | 2.65e-05 ± 1.9e-05 s⁻¹ |
| C11A G37C U57A C67G | 5.19e-05 ± 2.7e-05 s⁻¹ |
| G7A A53U C68G | 3.37e-05 ± 2.3e-05 s⁻¹ |
| U49G U65A | 1.68e-05 ± 1.4e-05 s⁻¹ |
| A52C U55G | 1.76e-05 ± 1.3e-05 s⁻¹ |
| A53G C61U | 1.19e-05 ± 8e-06 s⁻¹ |
| C16G G38U C50G U54C | 2.34e-05 ± 2.1e-05 s⁻¹ |

Variants of: B1
Assay: self-cleavage kobs at 2500 uM GlcN6P; higher = faster cleavage; RNA array
Conditions: with glucosamine-6-phosphate
Procedure, shortened: as §1

| Variant | self-cleavage kobs at 2500 uM GlcN6P |
| --- | --- |
| C11A A36U U56A C68G C70A | 5.37e-05 ± 3.2e-05 s⁻¹ |
| U46G C68A | 2.3e-05 ± 2.1e-05 s⁻¹ |
| U49G G66U | 1.89e-05 ± 1.3e-05 s⁻¹ |
| C11U A42G U54A | 0.000509 ± 0.00027 s⁻¹ |
| U55C C68U | 2.74e-05 ± 1.5e-05 s⁻¹ |
